For this assay, the target named is Toll-like receptor 4 (mouse (endogenous in RAW 264.7)) (UniProt Q9QUK6). As to the kind of experiment: co-IP; anti-TLR4 antibody and magnetic beads on RAW 264.7 lysate; cells treated with LPS (20 ng/ml) and indicated concentrations of pentamidine for 1 h; lysis buffer 25 mM Tris pH 8.0, 150 mM KCl, 5 mM EDTA, 0.5% NP-40; MD2, TLR4 and MyD88 detected by Western blotting. In general terms: Immunoblotting shows a protein as a band on a membrane.

Protein sequences, listed by entry. Tags and fused reporters are not part of them. Residues count along the entry.
UniProt Q9QUK6, residues 26-835: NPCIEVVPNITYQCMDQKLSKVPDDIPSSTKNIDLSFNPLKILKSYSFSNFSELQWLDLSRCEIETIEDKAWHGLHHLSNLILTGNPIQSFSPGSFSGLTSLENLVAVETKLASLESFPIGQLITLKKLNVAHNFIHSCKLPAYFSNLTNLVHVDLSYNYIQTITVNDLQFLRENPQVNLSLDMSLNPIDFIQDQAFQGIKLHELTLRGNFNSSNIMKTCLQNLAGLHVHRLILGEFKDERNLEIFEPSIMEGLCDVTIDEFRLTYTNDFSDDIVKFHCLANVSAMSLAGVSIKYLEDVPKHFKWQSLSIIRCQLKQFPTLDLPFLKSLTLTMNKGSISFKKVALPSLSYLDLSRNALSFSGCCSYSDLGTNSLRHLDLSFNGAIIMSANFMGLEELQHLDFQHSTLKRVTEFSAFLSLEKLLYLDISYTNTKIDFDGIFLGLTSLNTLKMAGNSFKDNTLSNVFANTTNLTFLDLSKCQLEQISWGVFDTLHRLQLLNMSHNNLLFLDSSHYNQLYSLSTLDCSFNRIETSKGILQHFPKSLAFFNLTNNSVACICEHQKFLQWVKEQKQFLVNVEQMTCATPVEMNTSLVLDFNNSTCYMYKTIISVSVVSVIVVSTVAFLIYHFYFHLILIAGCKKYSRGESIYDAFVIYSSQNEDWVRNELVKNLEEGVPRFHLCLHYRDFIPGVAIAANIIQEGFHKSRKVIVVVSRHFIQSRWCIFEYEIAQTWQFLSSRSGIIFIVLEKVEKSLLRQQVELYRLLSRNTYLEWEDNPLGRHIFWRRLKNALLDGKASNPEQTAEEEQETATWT
UniProt P22366: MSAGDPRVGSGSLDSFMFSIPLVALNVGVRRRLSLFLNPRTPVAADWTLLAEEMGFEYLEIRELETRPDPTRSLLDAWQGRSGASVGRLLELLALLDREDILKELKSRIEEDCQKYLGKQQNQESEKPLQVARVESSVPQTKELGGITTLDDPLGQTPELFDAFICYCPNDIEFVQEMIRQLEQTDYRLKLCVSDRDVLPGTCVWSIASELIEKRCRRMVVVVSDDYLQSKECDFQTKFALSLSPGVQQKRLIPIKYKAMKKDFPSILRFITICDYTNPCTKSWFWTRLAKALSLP

These are yes or no findings as the source states them, for the method shown. In cells and extracts the contact can be indirect. Some entries that bind do so weakly or less than the wild type.

As for MyD88 (from UniProt P22366 1-296), the binding result is “binds”.

B1: myeloid differentiation protein 2 (protein, UniProt Q9JHF9 19-160)
chain: EKQQWFCNSSDAIISYSYCDHLKFPISISSEPCIRLRGTNGFVHVEFIPRGNLKYLYFNLFISVNSIELPKRKEVLCHGHDDDYSFCRALKGETVNTSIPFSFEGILFPKGHYRCVAEAIAGDTEEKLFCLNFTIIHRRDVN
Take B1: the binding result is on record as “binds”.

Values taken from article PMC8905599.
